83 variants from the RNAGym collection of RNA variant scans (doi:10.1126/science.aae0568) can be followed below.

First the molecules themselves.
B1: tRNA (parent)
chain: GUUCCGUUGGCGUAAUGGUAACGCGUCUCCCUCCUAAGGAGAAGACUGCGGGUUCGAGUCCCGUACGGAACG

Variants at the background level are over-represented here. A value given as a limit tells only on which side of the number the result lay.

Variants of B1 are the subject of the data set. Briefly: yeast fitness relative to wild type (ratio to wild type); higher = fitter; tRNA-Arg(CCU), competitive growth, 37 C, YPD. A digest of the protocol:
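For this measurement, the tRNA-Arg(CCU) gene was varied by chemical synthesis at a 3% per-site mutation rate across 69 sites, and each variant was placed at the native genomic locus in Saccharomyces cerevisiae. The pooled strains went through a 24-hour competition in YPD at 37°C in six parallel replicates, with amplicons from start and end populations read by 100-nucleotide paired-end sequencing. Darwinian fitness relative to wild type followed from the change in each genotype's frequency. Genotypes needed ≥ 100 starting reads, and estimates < 0.5 were set to 0.5.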
On to A14U A20G C31G U53C A69U, for which the yeast fitness is no more than 0.5.
On to C24G U54G C55G C62U, for which the yeast fitness is no more than 0.5.
Regarding U8A A21G C60G, the yeast fitness was no more than 0.5.
In the case of C11A A43U C66G it was no more than 0.5.
Regarding G6C C11G A15G G68C, the yeast fitness turned out to be 0.503.
On to A15U C30G C34U A45G C66U A70C, for which the yeast fitness is no more than 0.5.
To C29A C33G A70G belongs no more than 0.5; to U8C C66A, 0.687; to A21C C24A G56C C60G, no more than 0.5.
Take U26C G38C G41C A65G: the yeast fitness was no more than 0.5.
In the case of A21G A45C A57G it was no more than 0.5; in that of G10C A40U U47C G68A, no more than 0.5; in that of C27G C31U C34G A37G A69U, no more than 0.5.
To G6C A45C G67C belongs 0.536; to C11G A21U G68C, no more than 0.5.
To C33A C34A belongs 0.621; to U3A U8A A43U C55U, no more than 0.5.
A42U U64A G67A: the yeast fitness is no more than 0.5.
As to C62U G68C A69G, the yeast fitness was 0.567.
In the case of G58C G63C it was 0.702; in that of C24A G48C C61G, no more than 0.5.
To G10C C11U C30U belongs no more than 0.5.
With U3C C22G G67U, the yeast fitness came out at 0.538.
To U8A U13A C55U A70C belongs no more than 0.5.
Consider U19A C46U G48A U53C, for which the yeast fitness is 0.784.
For the variant C5U A15U C30G C33G A40G A43U, the yeast fitness was no more than 0.5.
In the case of U7C U28A G48C A70C it was no more than 0.5; in that of C11A C27U G58A, no more than 0.5.
With A20G C49G G52A A57C, the yeast fitness was no more than 0.5.
As for G10C C22U C34U C55A, the yeast fitness was no more than 0.5.
To C4G G38C belongs 0.763; to U3C U32G A40C G41A C61U G68A, no more than 0.5.
Consider G12A C29A C33A, for which the yeast fitness was no more than 0.5.
To C31U A42G G58A belongs 0.716; to C4A G23A U28A G48A A70C, no more than 0.5.
For the variant C5A C34G A36G G67A A70G, the yeast fitness was no more than 0.5.
As to C22G C55A C62U, the yeast fitness is no more than 0.5.
To C5G G6C C49U G51A belongs no more than 0.5.
Turning to G25C C29A G52A C66U, the yeast fitness is no more than 0.5.
For C29U C30U C49G A65U, the yeast fitness was no more than 0.5.
In the case of U19A C24U G25C A70C it was no more than 0.5.
To G6A C27G A40U belongs no more than 0.5.
In the case of A21U C22U U32A A57C it was no more than 0.5; in that of A15C C61A C66U, no more than 0.5; in that of C24G C30G G39A C55A C62A, no more than 0.5.
C24A U26G U35G G51C G58A: the yeast fitness was no more than 0.5.
In the case of A36C A43C C61G A70G it was no more than 0.5; in that of A15G C31A G41C, no more than 0.5.
To G6C A14U A36G A42G belongs no more than 0.5.
With C34G C46U C55U, the yeast fitness is no more than 0.5.
For C5U C31G C49U C61G, the yeast fitness was no more than 0.5.
For C5G C30U A36U G51C, the yeast fitness was no more than 0.5.
In the case of G9C C27U A42U G63C A70U it was no more than 0.5; in that of C31A A43G A45C U64G, no more than 0.5; in that of C5U G23C U32C A42G U54A, no more than 0.5.
In the case of C30U C34A U54A it was no more than 0.5; in that of C5A U16A A45G G50A G63A, no more than 0.5.
In the case of C24U C33U C61A A69U it was no more than 0.5; in that of G10A C46A A57G, no more than 0.5.
In the case of A20C C49A G52A C61U, the yeast fitness was no more than 0.5.
On to C4G C30A A45U C55U, for which the yeast fitness was no more than 0.5.
In the case of C22A U53C U64A it was no more than 0.5; in that of A45U G51C G67C, no more than 0.5.
G18A U26G G50C: the yeast fitness is no more than 0.5.
In the case of A15U C27G C49A G52U, the yeast fitness was no more than 0.5.
As to U2C C11A A21C C31U, the yeast fitness is no more than 0.5.
For the variant C4A U26G C29G U47G U59G, the yeast fitness is no more than 0.5.
With U13C C22U C27A G51C, the yeast fitness was no more than 0.5.
Consider C5G A42U A45G A69C, for which the yeast fitness was no more than 0.5.
Regarding C5U A37C A40C G51A C55A G58A G68A, the yeast fitness is no more than 0.5.
To G38C G41C C49U A57G belongs no more than 0.5; to A20G G23C A43G G58C U64G, no more than 0.5; to G9C C11A A15U C24G C33G G38C A43G C60U G63A, no more than 0.5.
Consider U8G C24U C29G C31A A45G C61U A65C G67A G68A, for which the yeast fitness is no more than 0.5.
Turning to U8C C30U C31A C33G G48A C61G C66G, the yeast fitness is no more than 0.5.
On to C27G U47G C49U, for which the yeast fitness was no more than 0.5.
In the case of C4A G18U C60A it was no more than 0.5.
As to C22G C34G U35A A36U G48C C55G A69U, the yeast fitness is no more than 0.5.
Consider G12A G44C G58C A69U, for which the yeast fitness is no more than 0.5.
To C49U U54G C61U belongs no more than 0.5; to C30G G38C G52A C55U, no more than 0.5; to G17A C24A U35A G52A G58A, no more than 0.5.
To C22U C55A C61G belongs no more than 0.5.
